# Laboratory results as given in the supplement of paper PMC4604168 (melanoma cell lines).
# The list shows a part of the results. Single values are uncertain, as repeats are few or missing.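 Cells were imaged in 1,536-well plates, and nuclei stained with an antibody against cleaved PARP were counted against all DNA-stained nuclei to give the apoptosis fraction. Screening doses were chosen to leave most cells alive, and resting and induced cleaved-PARP levels differ strongly between cell lines.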
# Experiments:
# Assay in all cases: cleaved PARP positive nuclei fraction relative to DMSO control; melanoma cells; higher = more apoptosis
# Settings in all cases: library dose: low library concentration; 72 h
# 501Mel = test system: 501Mel
# A101D = test system: A101D
# A2058 = test system: A2058
# A375 = test system: A375
# C32 = test system: C32
# CBRC008 = test system: CBRC008 (line from a melanoma biopsy)
# CBRC014 = test system: CBRC014 (line from a melanoma biopsy)
# CBRC016 = test system: CBRC016 (line from a melanoma biopsy)
# CBRC017 = test system: CBRC017 (line from a melanoma biopsy)
SMILES,cleaved PARP positive nuclei fraction (501Mel),cleaved PARP positive nuclei fraction (A101D),cleaved PARP positive nuclei fraction (A2058),cleaved PARP positive nuclei fraction (A375),cleaved PARP positive nuclei fraction (C32),cleaved PARP positive nuclei fraction (CBRC008),cleaved PARP positive nuclei fraction (CBRC014),cleaved PARP positive nuclei fraction (CBRC016),cleaved PARP positive nuclei fraction (CBRC017)
"Cn1cc(C2=C(c3cn(C4CCN(Cc5ccccn5)CC4)c4ccccc34)C(=O)NC2=O)c2ccccc21 [Enzastaurin] + CO[C@H]1C[C@@H]2CC[C@@H](C)[C@@](O)(O2)C(=O)C(=O)N2CCCC[C@H]2C(=O)O[C@H]([C@H](C)C[C@@H]2CC[C@@H](OCCO)[C@H](OC)C2)CC(=O)[C@H](C)/C=C(\C)[C@@H](O)[C@@H](OC)C(=O)[C@H](C)C[C@H](C)/C=C/C=C/C=C/1C [everolimus] (first compound 0.8 µM, partner dose 0.02 µM)",4100%,111%,88.1%,281%,76.7%,137%,98.3%,249%,118%
"COc1ccc(C2=N[C@@H](c3ccc(Cl)cc3)[C@@H](c3ccc(Cl)cc3)N2C(=O)N2CCNC(=O)C2)c(OC(C)C)c1 [Nutlin-3] + N.N.[Cl][Pt][Cl] [cisplatin] (first compound 0.1 µM, partner dose 1.6 µM)",83.5%,258%,73.6%,108%,75.4%,154%,103%,137%,138%
"C[C@]12O[C@H](C[C@]1(O)CO)n1c3ccccc3c3c4c(c5c6ccccc6n2c5c31)CNC4=O [Lestaurtinib] + CCCCCCCCc1ccc(CCC(N)(CO)CO)cc1 [fingolimod] (first compound 0.004 µM, partner dose 2 µM)",153%,95.2%,34.6%,221%,68.1%,71.4%,71.1%,94.3%,108%
"C[C@]12O[C@H](C[C@]1(O)CO)n1c3ccccc3c3c4c(c5c6ccccc6n2c5c31)CNC4=O [Lestaurtinib] + CN1CCN(c2ccc3nc(-c4c(N)c5c(F)cccc5[nH]c4=O)[nH]c3c2)CC1 [Dovitinib] (first compound 0.004 µM, partner dose 0.1 µM)",145%,125%,185%,131%,92.8%,21.8%,81.4%,83%,67.2%
"C[C@]12O[C@H](C[C@]1(O)CO)n1c3ccccc3c3c4c(c5c6ccccc6n2c5c31)CNC4=O [Lestaurtinib] + COCC[n+]1c2c(n(Cc3cnccn3)c1C)C(=O)c1ccccc1C2=O [YM155] (first compound 0.004 µM, partner dose 0.0004 µM)",62.1%,91.8%,65.3%,48.9%,71.6%,295%,101%,95.6%,130%
"O=C(/C=C/c1cccnc1)NCCCCC1CCN(C(=O)c2ccccc2)CC1 + C[C@]12O[C@H](C[C@]1(O)CO)n1c3ccccc3c3c4c(c5c6ccccc6n2c5c31)CNC4=O [Lestaurtinib] (first compound 0.01 µM, partner dose 0.004 µM)",123%,137%,57.3%,117%,50.4%,2940%,105%,1530%,428%
"Clc1ccc(Nc2nnc(Cc3ccncc3)c3ccccc23)cc1 [vatalanib] + C[As](C)SC[C@H](NC(=O)CC[C@H](N)C(=O)O)C(=O)NCC(=O)O [Darinaparsin] (first compound 2 µM, partner dose 0.4 µM)",53%,54.7%,120%,141%,147%,105%,134%,62%,107%
"C[As](C)SC[C@H](NC(=O)CC[C@H](N)C(=O)O)C(=O)NCC(=O)O [Darinaparsin] + Cc1nc(Nc2ncc(C(=O)Nc3c(C)cccc3Cl)s2)cc(N2CCN(CCO)CC2)n1 [dasatanib] (first compound 0.4 µM, partner dose 0.004 µM)",152%,85%,370%,44.1%,95.5%,106%,119%,66.2%,98.1%
"Cn1cc(C2=C(c3cn(C4CCN(Cc5ccccn5)CC4)c4ccccc34)C(=O)NC2=O)c2ccccc21 [Enzastaurin] + C[C@]12O[C@H](C[C@]1(O)CO)n1c3ccccc3c3c4c(c5c6ccccc6n2c5c31)CNC4=O [Lestaurtinib] (first compound 0.8 µM, partner dose 0.004 µM)",68.6%,215%,111%,201%,88.9%,61.4%,99.1%,123%,123%
"Cn1cc(C2=C(c3cn(C4CCN(Cc5ccccn5)CC4)c4ccccc34)C(=O)NC2=O)c2ccccc21 [Enzastaurin] + COc1ccc(Cl)c(Nc2nc3ccccc3nc2NS(=O)(=O)c2cccc(NC(=O)C(C)(C)N)c2)c1 [XL147] (first compound 0.8 µM, partner dose 0.8 µM)",86.5%,45.6%,37.1%,58.3%,38.1%,80.2%,129%,151%,102%
"COc1ccc(C2=N[C@@H](c3ccc(Cl)cc3)[C@@H](c3ccc(Cl)cc3)N2C(=O)N2CCNC(=O)C2)c(OC(C)C)c1 [Nutlin-3] + C[As](C)SC[C@H](NC(=O)CC[C@H](N)C(=O)O)C(=O)NCC(=O)O [Darinaparsin] (first compound 0.1 µM, partner dose 0.4 µM)",63.7%,44.5%,265%,140%,147%,72.5%,86.2%,151%,86.8%
"C[C@]12O[C@H](C[C@]1(O)CO)n1c3ccccc3c3c4c(c5c6ccccc6n2c5c31)CNC4=O [Lestaurtinib] + Nc1nc(F)nc2c1ncn2[C@@H]1O[C@H](CO)[C@@H](O)[C@@H]1O [fludarabine] (first compound 0.004 µM, partner dose 0.2 µM)",10100%,51.7%,88%,2790%,133%,45%,96%,157%,99.5%
"C[C@]12O[C@H](C[C@]1(O)CO)n1c3ccccc3c3c4c(c5c6ccccc6n2c5c31)CNC4=O [Lestaurtinib] + CS(=O)(=O)CCNCc1ccc(-c2ccc3ncnc(Nc4ccc(OCc5cccc(F)c5)c(Cl)c4)c3c2)o1 [lapatinib] (first compound 0.004 µM, partner dose 0.8 µM)",154%,108%,77.2%,160%,84%,137%,87%,101%,96.3%
"Cn1cc(C2=C(c3cn(C4CCN(Cc5ccccn5)CC4)c4ccccc34)C(=O)NC2=O)c2ccccc21 [Enzastaurin] + O=C(O)[C@@H]1[O][Sb](=[O])([O][Sb]2(=[O])[O][C@H]([C@H](O)CO)[C@H](O)[C@H](C(=O)O)[O]2)[O][C@H]([C@H](O)CO)[C@@H]1O [stibogluconate] (first compound 0.8 µM, partner dose 2 µM)",143%,136%,106%,90.4%,84.4%,40.6%,70.3%,115%,118%
"Cn1cc(C2=C(c3cn(C4CCN(Cc5ccccn5)CC4)c4ccccc34)C(=O)NC2=O)c2ccccc21 [Enzastaurin] + CS(=O)(=O)CCNCc1ccc(-c2ccc3ncnc(Nc4ccc(OCc5cccc(F)c5)c(Cl)c4)c3c2)o1 [lapatinib] (first compound 0.8 µM, partner dose 0.8 µM)",66.6%,220%,141%,149%,65.5%,212%,122%,48.9%,178%
"Cn1cnc2c(F)c(Nc3ccc(Br)cc3Cl)c(C(=O)NOCCO)cc21 [selumetinib] + Cn1cc(C2=C(c3cn(C4CCN(Cc5ccccn5)CC4)c4ccccc34)C(=O)NC2=O)c2ccccc21 [Enzastaurin] (first compound 0.015 µM, partner dose 0.8 µM)",924%,51.3%,105%,240%,76%,196%,66.1%,157%,113%

# Quoted at random: 2 entries already listed, in no set order.
SMILES,cleaved PARP positive nuclei fraction (501Mel),cleaved PARP positive nuclei fraction (A101D),cleaved PARP positive nuclei fraction (A2058),cleaved PARP positive nuclei fraction (A375),cleaved PARP positive nuclei fraction (C32),cleaved PARP positive nuclei fraction (CBRC008),cleaved PARP positive nuclei fraction (CBRC014),cleaved PARP positive nuclei fraction (CBRC016),cleaved PARP positive nuclei fraction (CBRC017)
"Clc1ccc(Nc2nnc(Cc3ccncc3)c3ccccc23)cc1 [vatalanib] + C[As](C)SC[C@H](NC(=O)CC[C@H](N)C(=O)O)C(=O)NCC(=O)O [Darinaparsin] (first compound 2 µM, partner dose 0.4 µM)",53%,54.7%,120%,141%,147%,105%,134%,62%,107%
"Cn1cc(C2=C(c3cn(C4CCN(Cc5ccccn5)CC4)c4ccccc34)C(=O)NC2=O)c2ccccc21 [Enzastaurin] + COc1ccc(Cl)c(Nc2nc3ccccc3nc2NS(=O)(=O)c2cccc(NC(=O)C(C)(C)N)c2)c1 [XL147] (first compound 0.8 µM, partner dose 0.8 µM)",86.5%,45.6%,37.1%,58.3%,38.1%,80.2%,129%,151%,102%
